Among the data in publication PMC12315821 are binding values, retold here.

By UniProt entry, the sequences of proteins in these tests, tags left out. Residues count along the entry.
UniProt P29595, residues 1-76: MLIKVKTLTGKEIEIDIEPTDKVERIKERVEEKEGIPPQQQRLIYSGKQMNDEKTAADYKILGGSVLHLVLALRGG

No constants are given. Whether binding was seen depends on the method and setting. Binding seen in cells or lysates may run through a third protein. A yes stands for co-enrichment or nearness to the bait. Other partners may have been found.

In the assay the target is neuronal precursor cell-expressed developmentally down-regulated protein 8 (NEDD8), endogenous in HT22 cells (mouse (endogenous in HT22)) (UniProt P29595). Nature of the assay: affinity purification with mass spectrometry; Co-IP with a NEDD8 antibody from NETs-treated HT22 cells, silver staining, mass spectrometry.

B1: TRIM56, endogenous in HT22 cells (protein, UniProt Q80VI1 1-734)
chain: MNSKVSSPTLLEALSSDFLACKICLEQLHTPKTLPCLHTYCQDCLAQLDIGGQVRCPECREIVPVPAEGVAAFKTNFFVNGLLDLVKARAPGDVHSGKPTCALCPLVGGKSSGGPATARCLDCADDLCQACADGHRCSRQTHKHRVVDLVGYRAGWYDEEARERQASQCPQHPGEALCFLCQPCSQLLCKDCRLGPHIDHPCLPLAEAVRSRKPGLEELLAGVDSNLVELEATRVAEKEALALLREQAASVGTQVEEAAERILKSLLAQKQEVLGQLRALVEAAEEATRERLTKIERQEQVAKAAAAFARRVLSLGLEAEILSLEGAITQRLRQLQDAPWTSGPTRCVLPQLELHPGLEDKNCHLLRLIFEEPKQSPKDSGKGGAGTQGGDEAQGQGDDRTKIGKQGGAQPLTPKEGKDQNPQEDDGVFIERGNRPNKKKKCKGRGKSVSREPSPILRPNLEGSGLLPRPVFSWSFPTRMPGDKRSPRITGLCPYGPQEILVADEQNRVLKRFSLNGDYKGTVQVPEGCSPCSVAALQNAVAFSANAKLYLVSPDGEIQWRRSLSLTQSSHAVAAMPCGDRVAVSVAGHVEVYKKDGSLATRFIPGGKASRGQRALVFLTTSPQGNFVGSDWQQNSVVFCDGLGQVIWEYKGPGLHGCQPGSVSVDKKGYIFLTLREVNKVVILDPKGSLLGDFLTAYHGLEKPRVTTMVDGKYLVVSLSNGTIHVFRVRFPDS
Consider B1, for which the binding result is “binds”.
